{
  "source": "PubChem BioAssay AID504467",
  "about": "(National Center for Advancing Translational Sciences (NCATS), 2011)",
  "note": "The campaign covered roughly 330,000 compounds. About 7,700 (2.3%) were called active. Inconclusive means that the source gave no clear call. Such entries were picked first, then a sample of the others. Calls come from the whole dose curve; as a rule, active = well fitted inhibition curve with a large enough effect; inconclusive = small, poorly fitted or top-dose-only effect, or effect the other way; inactive = flat fitted curve, though single readings scatter. A potency beside an inconclusive call is a rough fit, not a confirmed value. % is set by controls: 0 for no effect and ±100 for the full control effect; potency is the fitted concentration of half-maximal effect.",
  "data": [
    {"assay": "qHTS screen for small molecules that inhibit ELG1-dependent DNA repair in human embryonic kidney (HEK293T) cells expressing luciferase-tagged ELG1; note: nearly all actives have a fitted effect of over 55% in size", "details": "HEK293T ELG1-luciferase reporter, luminescence, 16 h, DNA damage induced by 5-fluorouridine; activity change, negative = inhibition: at 46.1 µM (top of the series)", "outline": "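Overnight (16 hr) co-exposure of 2,000 cells/well to 5-fluorouridine and compound at 37 °C preceded detection. Luciferase was quantified via ONE-Glo luminescence; loss of signal denotes inhibition.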", "values": [
      {"molecule": "CCNc1nc(NCC)nc(Oc2ccc(OCc3ccccc3)nn2)n1", "Potency": "inconclusive: 23.1 µM [activator, partial curve, poor fit]"},
      {"molecule": "O=C(/C=C/c1ccco1)Nc1ccc(Oc2ccccc2)cc1", "Potency": "inconclusive: 0.116 µM [activator, full curve, poor fit]"},
      {"molecule": "Nc1ncnc2nc(SCCOc3ccc(Cl)cc3)[nH]c12", "activity change, negative = inhibition": "inactive: 22.3%"},
      {"molecule": "Cc1ccc(N(CCC(=O)O)S(=O)(=O)c2ccccc2)cc1", "activity change, negative = inhibition": "inactive: 5.55%"},
      {"molecule": "CC1CCCCC1NC(=O)CN1C(=O)NC(Cc2ccccc2)(Cc2ccccc2)C1=O", "note": "(centres undefined)", "activity change, negative = inhibition": "inactive: -4.44%"},
      {"molecule": "Cc1ccc(NS(=O)(=O)c2ccc3c(c2)CC(=O)N3)cc1C", "activity change, negative = inhibition": "inactive: -0.831%"},
      {"molecule": "Cc1ccc(S(=O)(=O)N2CCOCC2)cc1NC(=O)COC(=O)Cc1ccc(Cl)cc1", "Potency": "inconclusive: 0.206 µM [inhibitor, partial curve, poor fit]"},
      {"molecule": "C=CCC[C@@H](Cc1ccc(F)cc1)C(=O)OC[C@@H](Cc1c[nH]c2ccccc12)NC(=O)[C@H](CC=C)CC(=O)N(CCO)Cc1ccccc1", "Potency": "active: 18.3 µM"},
      {"molecule": "Cc1nn(CSc2c(F)c(F)c(F)c(F)c2F)c(C)c1[N+](=O)[O-]", "activity change, negative = inhibition": "inactive: 2.16%"},
      {"molecule": "CCCCCc1c(C)nc(N2CCN(Cc3ccc4c(c3)OCO4)CC2)[nH]c1=O", "activity change, negative = inhibition": "inactive: -15.9%"},
      {"molecule": "Oc1ccc(C[C@@H]2CNCCN2CCC23CC4CC(CC(C4)C2)C3)cc1", "Potency": "inconclusive: 29.1 µM [activator, single point]"},
      {"molecule": "Cc1occc1-c1nnc(SCC(=O)NC2CCCCC2)o1", "Potency": "inconclusive: 18.3 µM [activator, partial curve, poor fit]"},
      {"molecule": "CCCNC(=O)C/C(C)=N/NC(=O)C(=O)Nc1ccccn1", "Potency": "inconclusive: 20.6 µM [activator, single point]"},
      {"molecule": "COc1ccc(-n2nnnc2-c2cnc3cc4c(cc3c2C)OCO4)cc1", "activity change, negative = inhibition": "inactive: -16.3%"},
      {"molecule": "COc1ccc(S(=O)(=O)N2CCCCC2)cc1NC(=O)c1[nH]c(C)c(C(C)=O)c1C", "Potency": "inconclusive: 7.3 µM [activator, partial curve]"},
      {"molecule": "Cc1ccc(S(=O)(=O)NCc2ccccn2)c(C)c1C", "Potency": "inconclusive: 8.2 µM [inhibitor, partial curve, poor fit]"},
      {"molecule": "Clc1ccc(N2COC3c4cccc5cccc(c45)C32)cc1", "note": "(centres undefined)", "Potency": "inconclusive: 0.231 µM [activator, single point]"},
      {"molecule": "CC(C)Cn1c(N)c(C(=O)NCC2CCCO2)c2nc3ccccc3nc21", "note": "(centres undefined)", "Potency": "active: 8.91 µM"},
      {"molecule": "CCCn1nnc(NC(=O)c2ccc([N+](=O)[O-])cc2Cl)n1", "Potency": "inconclusive: 25.9 µM [activator, single point]"},
      {"molecule": "COc1ccc(C2(CN(C(C)=O)C(C)=O)CCCC2)cc1OC", "activity change, negative = inhibition": "inactive: -6.17%"},
      {"molecule": "CC(C)NC(=O)NC(=O)COC(=O)c1ccccc1Oc1ccccc1", "Potency": "inconclusive: 20.6 µM [inhibitor, single point]"},
      {"molecule": "COc1ccc(/C=C/C(=O)OCC(=O)c2ccc3c(c2)NC(=O)CO3)c(OC)c1", "Potency": "inconclusive: 29.1 µM [inhibitor, single point]"},
      {"molecule": "O=c1[nH]c(C2CCN(S(=O)(=O)c3ccc(S(=O)(=O)NC4CC4)cc3)CC2)nc2c1nnn2Cc1ccc(F)cc1", "Potency": "inconclusive: 20.6 µM [inhibitor, partial curve]"},
      {"molecule": "COc1ccc(OC2CCN(S(=O)(=O)c3cccc(F)c3)CC2)cc1", "activity change, negative = inhibition": "inconclusive: 10.4% [activator]"},
      {"molecule": "CCOC(=O)CNC(=O)N1CCCC(C(=O)c2cccc(Cl)c2)C1", "note": "(centres undefined)", "activity change, negative = inhibition": "inactive: 10.3%"},
      {"molecule": "COc1ccc(C=Nc2cccnc2N)cc1", "Potency": "inconclusive: 18.3 µM [activator, single point]"},
      {"molecule": "COc1ccc(NC(=O)Nc2ccccc2F)c([N+](=O)[O-])c1", "Potency": "inconclusive: 29.1 µM [activator, single point]"},
      {"molecule": "COc1ccc(/C=C/C(=O)N2CCN(c3ccccn3)CC2)c(OC)c1OC", "Potency": "inconclusive: 29.1 µM [inhibitor, single point]"},
      {"molecule": "COc1ccc(C(=O)c2sc(NC(C)C)nc2N)cc1OC", "Potency": "inconclusive: 4.61 µM [inhibitor, partial curve, poor fit]"},
      {"molecule": "CN(C)C(=O)C(=O)c1cccn1-c1cccc(Cl)c1C#N", "activity change, negative = inhibition": "inactive: 9.49%"},
      {"molecule": "Cc1cccc(-n2ncc3c(N4CCOCC4)ncnc32)c1", "Potency": "inconclusive: 0.366 µM [activator, full curve]"},
      {"molecule": "COc1cccc(NC(=O)CSc2nnc(NC(=O)C3CC3)s2)c1", "activity change, negative = inhibition": "inactive: -4.18%"},
      {"molecule": "COc1ccc(/C=N/NC(=O)c2ccc(Cn3cc([N+](=O)[O-])cn3)o2)c(OC)c1C", "Potency": "inconclusive: 29.1 µM [activator, single point]"},
      {"molecule": "COc1cccc(CN(Cc2cccnc2)S(=O)(=O)c2ccc(-n3cnnn3)c(C)c2)c1OC", "Potency": "inconclusive: 25.9 µM [inhibitor, partial curve, poor fit]"},
      {"molecule": "CC(=O)NCCC1CCCCN1C(=O)c1cc(COc2cc(C)ccc2C)on1", "note": "(centres undefined)", "Potency": "inconclusive: 20.6 µM [activator, partial curve]"},
      {"molecule": "O=C(COCc1cc(-c2ccc3c(c2)OCO3)on1)Nc1cccnc1", "Potency": "inconclusive: 29.1 µM [inhibitor, single point]"},
      {"molecule": "COc1ccc(C(=O)Nc2ccc(NC(=O)c3cccs3)cn2)cc1", "Potency": "inconclusive: 18.3 µM [activator, single point]"},
      {"molecule": "CCOc1ccc2oc(C(=O)N3CCCN(C)CC3)c(C)c2c1", "Potency": "inconclusive: 18.3 µM [activator, single point]"},
      {"molecule": "C[C@H](NC(=O)c1nc[nH]c1C(=O)N1CCN(C(=O)OC(C)(C)C)CC1)C(=O)OCc1ccccc1", "activity change, negative = inhibition": "inactive: -5.37%"},
      {"molecule": "CCCCNCc1cc2ccccc2o1", "Potency": "inconclusive: 18.3 µM [activator, single point]"},
      {"molecule": "COC(=O)c1ccc(/C=N/Nc2nc(-c3ccccc3)cs2)cc1", "activity change, negative = inhibition": "inactive: 6.5%"},
      {"molecule": "CCc1ccc(CNCc2cccnc2)cc1", "Potency": "inconclusive: 16.4 µM [activator, single point]"},
      {"molecule": "O=C(COC(=O)CNC(=O)c1ccc(Cl)cc1Cl)Nc1cccc(S(=O)(=O)N2CCCC2)c1", "activity change, negative = inhibition": "inactive: -10.4%"},
      {"molecule": "CC(C)C(=O)Nc1cccc(C(=O)Nc2cc([N+](=O)[O-])ccc2Cl)c1", "Potency": "inconclusive: 14.6 µM [inhibitor, partial curve]"}
    ]}
  ]
}
